This experiment has as its target NT5E dimer (cryo-EM complex with Fab32). Nature of the experiment: cryo-EM structure of the complex.

This is an account of results in patent publication US20240199757A1.

Results are given in words; binding and its absence hold for the method and conditions named. A result given as binding can be weak or reduced; the word gives no strength.

B1: 1789 AM32 Fab (Fab, V domains shown)
VH: EVQLVESGGGLVQPGGSLRLSCAASGFNVSYSSIHWVRQAPGKGLEWVARIRGNEGDTYYADSVKGRFTISADTSKNTAYLQMNSLRAEDTAVYYCARNYWGWYPFYYFAFDYWGQGTLVTV
VL: DIQMTQSPSSLSASVGDRVTITCRASQSVSSAVAWYQQKPGKAPKLLIYSASSLYSGVPSRFSGSRSGTDFTLTISSLQPEDFATYYCQQGWDYPITFGQGTKVEIKR
In the case of B1, the binding result is “binds”.
